Experimental data taken from the supplement of paper PMC12067093, “Discovery and optimisation of a covalent ligand for TRIM25 and its application to targeted protein ubiquitination” (Chemical Science, 2025).
The list shows a part of the results.
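Also: competitive chemoproteomic profiling in live THP-1 cells with an iodoacetamide desthiobiotin (IA-DTB) probe, comparing probe-labelled peptide intensities in compound-treated cells against DMSO-treated controls.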

By UniProt entry, the sequences of proteins in these tests, tags left out. Where a name states a change or a piece, a line headed by the entry shows the natural chain unless it says otherwise.
UniProt O15260: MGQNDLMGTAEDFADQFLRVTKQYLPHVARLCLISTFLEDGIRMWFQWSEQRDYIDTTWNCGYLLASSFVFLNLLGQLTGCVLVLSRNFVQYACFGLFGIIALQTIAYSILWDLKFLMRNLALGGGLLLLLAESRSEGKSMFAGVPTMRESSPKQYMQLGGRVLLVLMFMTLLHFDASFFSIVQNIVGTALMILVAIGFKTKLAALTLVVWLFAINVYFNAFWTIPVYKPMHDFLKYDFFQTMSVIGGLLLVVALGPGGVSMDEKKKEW
UniProt P42224: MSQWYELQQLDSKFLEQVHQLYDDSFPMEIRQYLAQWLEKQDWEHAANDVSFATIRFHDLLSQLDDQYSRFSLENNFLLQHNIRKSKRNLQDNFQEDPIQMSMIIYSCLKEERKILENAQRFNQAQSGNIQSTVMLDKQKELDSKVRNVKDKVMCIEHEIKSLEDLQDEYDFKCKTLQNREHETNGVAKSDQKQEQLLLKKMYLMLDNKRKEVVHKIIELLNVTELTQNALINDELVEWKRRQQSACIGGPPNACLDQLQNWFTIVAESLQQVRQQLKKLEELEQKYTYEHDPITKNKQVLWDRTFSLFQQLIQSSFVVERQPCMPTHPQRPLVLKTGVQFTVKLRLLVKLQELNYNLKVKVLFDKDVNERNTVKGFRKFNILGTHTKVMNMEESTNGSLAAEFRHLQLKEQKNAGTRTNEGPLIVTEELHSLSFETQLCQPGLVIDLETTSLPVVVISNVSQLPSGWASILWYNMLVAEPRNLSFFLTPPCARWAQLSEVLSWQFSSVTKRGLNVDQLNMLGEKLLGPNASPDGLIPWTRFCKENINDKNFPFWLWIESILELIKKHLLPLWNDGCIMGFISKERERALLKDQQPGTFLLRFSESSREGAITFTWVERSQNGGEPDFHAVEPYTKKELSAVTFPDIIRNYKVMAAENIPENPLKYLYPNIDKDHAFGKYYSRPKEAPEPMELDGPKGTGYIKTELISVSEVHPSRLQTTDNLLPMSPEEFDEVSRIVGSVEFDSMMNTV
UniProt Q15527: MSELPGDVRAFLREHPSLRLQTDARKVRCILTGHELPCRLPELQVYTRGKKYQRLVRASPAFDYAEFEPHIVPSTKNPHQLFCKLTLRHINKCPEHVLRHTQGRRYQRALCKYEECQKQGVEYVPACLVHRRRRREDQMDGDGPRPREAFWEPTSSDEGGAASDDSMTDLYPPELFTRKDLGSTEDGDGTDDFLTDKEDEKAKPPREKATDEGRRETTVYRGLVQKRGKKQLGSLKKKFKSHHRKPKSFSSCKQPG
UniProt Q9UNE7: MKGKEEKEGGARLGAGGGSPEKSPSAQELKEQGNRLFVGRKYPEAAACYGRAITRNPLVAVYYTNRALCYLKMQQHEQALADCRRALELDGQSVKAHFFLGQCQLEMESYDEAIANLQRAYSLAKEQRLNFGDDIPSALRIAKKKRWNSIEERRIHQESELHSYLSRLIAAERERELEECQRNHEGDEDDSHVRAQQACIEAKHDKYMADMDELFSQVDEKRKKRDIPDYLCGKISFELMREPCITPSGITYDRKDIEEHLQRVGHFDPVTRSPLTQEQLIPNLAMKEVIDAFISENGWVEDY
UniProt Q9UH65: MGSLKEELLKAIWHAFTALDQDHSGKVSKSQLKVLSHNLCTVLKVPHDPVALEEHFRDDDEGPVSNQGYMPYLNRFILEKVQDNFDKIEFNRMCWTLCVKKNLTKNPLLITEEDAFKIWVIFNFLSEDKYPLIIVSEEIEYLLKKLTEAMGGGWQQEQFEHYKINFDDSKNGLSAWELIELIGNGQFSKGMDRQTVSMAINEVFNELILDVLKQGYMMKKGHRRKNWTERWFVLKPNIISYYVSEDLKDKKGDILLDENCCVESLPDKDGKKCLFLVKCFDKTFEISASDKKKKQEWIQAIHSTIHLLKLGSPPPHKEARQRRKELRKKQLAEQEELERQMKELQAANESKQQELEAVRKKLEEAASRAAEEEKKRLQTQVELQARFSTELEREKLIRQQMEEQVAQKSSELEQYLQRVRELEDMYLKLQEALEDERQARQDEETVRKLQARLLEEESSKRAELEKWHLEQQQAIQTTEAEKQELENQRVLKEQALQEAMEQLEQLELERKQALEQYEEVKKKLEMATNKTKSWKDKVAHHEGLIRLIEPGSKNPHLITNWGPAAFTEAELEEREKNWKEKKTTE
UniProt Q8N3U4: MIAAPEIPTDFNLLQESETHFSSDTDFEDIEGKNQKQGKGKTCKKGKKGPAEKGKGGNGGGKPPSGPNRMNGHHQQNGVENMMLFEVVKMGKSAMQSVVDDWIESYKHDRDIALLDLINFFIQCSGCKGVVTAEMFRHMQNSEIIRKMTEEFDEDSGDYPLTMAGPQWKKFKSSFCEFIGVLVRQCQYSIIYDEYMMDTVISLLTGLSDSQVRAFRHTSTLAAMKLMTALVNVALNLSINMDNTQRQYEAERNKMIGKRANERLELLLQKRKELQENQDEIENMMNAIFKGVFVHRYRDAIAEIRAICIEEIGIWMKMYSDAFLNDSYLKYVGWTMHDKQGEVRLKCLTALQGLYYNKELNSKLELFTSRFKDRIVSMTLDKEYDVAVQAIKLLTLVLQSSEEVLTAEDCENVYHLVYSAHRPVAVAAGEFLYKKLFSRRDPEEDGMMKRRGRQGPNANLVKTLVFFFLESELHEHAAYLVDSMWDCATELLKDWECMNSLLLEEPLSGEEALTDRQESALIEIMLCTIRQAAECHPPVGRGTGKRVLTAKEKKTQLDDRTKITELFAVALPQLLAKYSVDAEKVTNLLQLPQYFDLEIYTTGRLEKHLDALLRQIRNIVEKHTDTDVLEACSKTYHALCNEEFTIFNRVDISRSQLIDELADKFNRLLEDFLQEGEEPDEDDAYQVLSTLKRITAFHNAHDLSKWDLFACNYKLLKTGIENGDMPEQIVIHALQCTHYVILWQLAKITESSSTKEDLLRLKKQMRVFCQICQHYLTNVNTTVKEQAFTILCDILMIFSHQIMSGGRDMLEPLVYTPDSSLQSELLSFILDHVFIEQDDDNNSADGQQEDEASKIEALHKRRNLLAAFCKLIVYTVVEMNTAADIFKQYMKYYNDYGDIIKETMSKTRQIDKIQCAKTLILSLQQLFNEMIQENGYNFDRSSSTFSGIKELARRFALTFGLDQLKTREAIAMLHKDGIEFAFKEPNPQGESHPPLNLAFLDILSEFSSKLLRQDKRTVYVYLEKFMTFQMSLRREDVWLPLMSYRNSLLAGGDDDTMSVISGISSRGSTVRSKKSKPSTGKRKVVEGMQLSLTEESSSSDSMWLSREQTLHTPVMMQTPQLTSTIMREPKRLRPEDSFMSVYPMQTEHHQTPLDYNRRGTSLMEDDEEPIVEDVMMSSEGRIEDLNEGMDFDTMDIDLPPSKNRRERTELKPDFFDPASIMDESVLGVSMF
UniProt Q9Y3F4: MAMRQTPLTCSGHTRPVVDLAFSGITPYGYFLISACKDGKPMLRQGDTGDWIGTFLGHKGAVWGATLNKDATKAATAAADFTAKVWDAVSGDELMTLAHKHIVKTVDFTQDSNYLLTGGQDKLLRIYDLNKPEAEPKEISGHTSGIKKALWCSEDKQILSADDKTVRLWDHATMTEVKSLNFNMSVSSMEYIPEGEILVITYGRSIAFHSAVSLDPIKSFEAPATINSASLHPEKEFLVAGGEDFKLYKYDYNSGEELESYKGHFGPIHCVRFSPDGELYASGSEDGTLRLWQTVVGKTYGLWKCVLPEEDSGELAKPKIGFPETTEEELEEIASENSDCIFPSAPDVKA
UniProt Q13033: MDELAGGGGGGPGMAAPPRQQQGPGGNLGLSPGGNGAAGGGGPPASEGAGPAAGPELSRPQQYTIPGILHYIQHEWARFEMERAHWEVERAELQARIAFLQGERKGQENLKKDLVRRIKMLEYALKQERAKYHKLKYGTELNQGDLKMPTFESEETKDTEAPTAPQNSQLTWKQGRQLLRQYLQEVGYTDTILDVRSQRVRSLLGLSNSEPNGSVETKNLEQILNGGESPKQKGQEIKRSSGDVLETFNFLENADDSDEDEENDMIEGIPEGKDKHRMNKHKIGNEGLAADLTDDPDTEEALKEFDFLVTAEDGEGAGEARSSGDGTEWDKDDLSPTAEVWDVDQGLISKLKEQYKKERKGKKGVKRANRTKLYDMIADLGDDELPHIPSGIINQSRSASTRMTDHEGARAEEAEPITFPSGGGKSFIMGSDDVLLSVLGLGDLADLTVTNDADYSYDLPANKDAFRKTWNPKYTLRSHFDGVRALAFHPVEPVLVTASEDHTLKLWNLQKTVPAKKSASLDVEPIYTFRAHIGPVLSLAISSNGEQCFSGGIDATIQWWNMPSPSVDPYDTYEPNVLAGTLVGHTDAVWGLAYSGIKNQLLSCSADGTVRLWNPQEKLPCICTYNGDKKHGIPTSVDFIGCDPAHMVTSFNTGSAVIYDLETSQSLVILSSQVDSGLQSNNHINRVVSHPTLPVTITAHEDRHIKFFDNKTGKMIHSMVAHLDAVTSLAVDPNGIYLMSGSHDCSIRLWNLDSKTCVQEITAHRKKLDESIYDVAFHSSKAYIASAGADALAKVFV
UniProt Q12846: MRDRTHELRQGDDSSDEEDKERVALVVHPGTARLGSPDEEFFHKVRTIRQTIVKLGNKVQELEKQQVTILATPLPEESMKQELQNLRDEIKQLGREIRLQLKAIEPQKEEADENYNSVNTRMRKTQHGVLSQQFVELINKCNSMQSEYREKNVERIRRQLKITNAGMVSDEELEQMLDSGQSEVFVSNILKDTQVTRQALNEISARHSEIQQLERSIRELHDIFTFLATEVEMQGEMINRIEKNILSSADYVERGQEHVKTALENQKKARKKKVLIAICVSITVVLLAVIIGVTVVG
UniProt Q8IYB8: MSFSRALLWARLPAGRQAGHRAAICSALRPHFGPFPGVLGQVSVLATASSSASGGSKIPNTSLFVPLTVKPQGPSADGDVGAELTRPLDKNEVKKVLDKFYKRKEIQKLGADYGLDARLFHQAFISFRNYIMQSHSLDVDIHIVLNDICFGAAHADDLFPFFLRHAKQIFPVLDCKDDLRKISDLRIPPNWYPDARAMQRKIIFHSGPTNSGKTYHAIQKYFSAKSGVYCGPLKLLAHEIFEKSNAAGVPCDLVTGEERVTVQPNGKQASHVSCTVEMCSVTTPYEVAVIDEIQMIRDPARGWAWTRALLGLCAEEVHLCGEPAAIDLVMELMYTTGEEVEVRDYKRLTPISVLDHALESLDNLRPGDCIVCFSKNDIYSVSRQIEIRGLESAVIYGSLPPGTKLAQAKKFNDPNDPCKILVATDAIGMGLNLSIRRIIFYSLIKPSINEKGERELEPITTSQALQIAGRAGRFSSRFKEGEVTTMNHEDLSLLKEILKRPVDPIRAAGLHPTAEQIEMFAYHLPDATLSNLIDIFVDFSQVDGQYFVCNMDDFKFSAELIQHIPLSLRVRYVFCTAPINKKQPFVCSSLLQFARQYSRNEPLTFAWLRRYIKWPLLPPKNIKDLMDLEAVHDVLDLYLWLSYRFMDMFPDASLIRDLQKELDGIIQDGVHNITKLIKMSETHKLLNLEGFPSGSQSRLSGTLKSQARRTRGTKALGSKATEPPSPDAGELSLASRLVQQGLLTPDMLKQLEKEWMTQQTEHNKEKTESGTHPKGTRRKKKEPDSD
UniProt O94768: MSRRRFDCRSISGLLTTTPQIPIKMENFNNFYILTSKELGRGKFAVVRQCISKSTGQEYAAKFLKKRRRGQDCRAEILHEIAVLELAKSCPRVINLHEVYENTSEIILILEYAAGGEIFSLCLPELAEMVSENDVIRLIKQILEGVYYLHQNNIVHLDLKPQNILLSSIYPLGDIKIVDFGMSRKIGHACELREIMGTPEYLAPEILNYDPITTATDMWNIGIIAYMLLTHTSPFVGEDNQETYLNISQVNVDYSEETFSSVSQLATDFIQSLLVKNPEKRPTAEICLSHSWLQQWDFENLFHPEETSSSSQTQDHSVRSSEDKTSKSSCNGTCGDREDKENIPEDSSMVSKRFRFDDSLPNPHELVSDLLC
UniProt O95630, whole entry, looked up: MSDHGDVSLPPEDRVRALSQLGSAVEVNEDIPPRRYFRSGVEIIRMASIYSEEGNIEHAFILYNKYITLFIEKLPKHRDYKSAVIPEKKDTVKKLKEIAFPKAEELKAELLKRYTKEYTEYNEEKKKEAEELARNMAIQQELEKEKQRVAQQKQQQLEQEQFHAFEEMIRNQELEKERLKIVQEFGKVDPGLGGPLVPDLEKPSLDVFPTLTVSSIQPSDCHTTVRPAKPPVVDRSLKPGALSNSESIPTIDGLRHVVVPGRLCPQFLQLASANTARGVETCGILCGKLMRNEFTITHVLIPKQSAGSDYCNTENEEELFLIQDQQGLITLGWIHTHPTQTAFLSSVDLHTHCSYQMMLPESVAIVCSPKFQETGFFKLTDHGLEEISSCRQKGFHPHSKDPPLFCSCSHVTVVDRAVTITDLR

The targets below were run with CC1Cc2ccccc2N1C(=O)C1CCCN(C1)C(=O)CCl (mixture of isomers) [TRIM25 ligand 11 (diastereomer mixture)] (assay: probe-labelled cysteine peptide fold change vs DMSO (competition) (log2 fold change); higher = less target engagement (more negative = stronger competition)). Conditions: 10 µM; THP-1; incubation time: 4 h.
With “SURF4_O15260_32_LCLISTFLEDGIR (UniProt O15260)” the “probe-labelled cysteine peptide fold change” value was 0.474. “SRPRA_P08240_253_VWELGGCANK (UniProt P08240)” was tested, and the “probe-labelled cysteine peptide fold change” value was 0.0867. With “SUPT6H_Q7KZ85_990_AIAHPYSQALIQYVCGLGPR (UniProt Q7KZ85)” the “probe-labelled cysteine peptide fold change” value was -0.039. In the case of “STT3A_P46977_637_VDREGSPVLLNCLMYK (UniProt P46977)”, the “probe-labelled cysteine peptide fold change” value is reported as 0.137. With “SUPT6H_Q7KZ85_1281_FSADLTCR (UniProt Q7KZ85)” the “probe-labelled cysteine peptide fold change” value was 0.0643. For “STAT1_P42224_155_VMCIEHEIK (UniProt P42224)”, the “probe-labelled cysteine peptide fold change” value was -0.0877. With “SUZ12_Q15022_531_RTPITHILVCR (UniProt Q15022)” the “probe-labelled cysteine peptide fold change” value was 0.0364. In the case of “SUPT6H_Q7KZ85_939_IQDPLIEFAQVCSSDEDILCLK (UniProt Q7KZ85)”, the “probe-labelled cysteine peptide fold change” value is reported as -0.101. In the case of “SRRM2_Q9UQ35_785_SLSGSSPCPK (UniProt Q9UQ35)”, the “probe-labelled cysteine peptide fold change” value is reported as -0.0328. “STK24_Q9Y6E0_375_RPFSQCLSTIISPLFAELK (UniProt Q9Y6E0)” was tested, and the “probe-labelled cysteine peptide fold change” value was -0.0184. In the case of “SURF2_Q15527_93_CPEHVLR (UniProt Q15527)”, the “probe-labelled cysteine peptide fold change” value is reported as 0.0339. For “SUPT5H_O00267_638_LVENGGMFVCK (UniProt O00267)”, the “probe-labelled cysteine peptide fold change” value was -0.0153. With “SUPT6H_Q7KZ85_1465_EKPTFIPYFICACK (UniProt Q7KZ85)” the “probe-labelled cysteine peptide fold change” value was -0.0763. “STRADA_Q7RTN6_107_INLEACSNEMVTFLQGELHVSK (UniProt Q7RTN6)” was tested, and the “probe-labelled cysteine peptide fold change” value was 0.193. In the case of “STXBP6_Q8NFX7_144_KPEFINCQSK (UniProt Q8NFX7)”, the “probe-labelled cysteine peptide fold change” value is reported as -0.162. With “STUB1_Q9UNE7_232_DIPDYLCGK (UniProt Q9UNE7)” the “probe-labelled cysteine peptide fold change” value was 0.149. In the case of “STAT3_P40763_687_YCRPESQEHPEADPGSAAPYLK (UniProt P40763)”, the “probe-labelled cysteine peptide fold change” value is reported as 0.0338. “STAT2_P52630_323_AFVVETQPCMPQTPHRPLILK (UniProt P52630)” was tested, and the “probe-labelled cysteine peptide fold change” value was 0.0453. For “SWAP70_Q9UH65_261_GDILLDENCCVESLPDK (UniProt Q9UH65)”, the “probe-labelled cysteine peptide fold change” value was 0.344. For “SURF2_Q15527_29_CILTGHELPCR (UniProt Q15527)”, the “probe-labelled cysteine peptide fold change” value was 0.0486. “SWAP70_Q9UH65_260_GDILLDENCCVESLPDK (UniProt Q9UH65)” was tested, and the “probe-labelled cysteine peptide fold change” value was 0.173. For “SRRM2_Q9UQ35_1480_SECDSSPEPK (UniProt Q9UQ35)”, the “probe-labelled cysteine peptide fold change” value was -0.0751. For “STAG2_Q8N3U4_176_SSFCEFIGVLVR (UniProt Q8N3U4)”, the “probe-labelled cysteine peptide fold change” value was 0.251. With “STX17_P56962_290_LTSSCPDLPSQTDKK (UniProt P56962)” the “probe-labelled cysteine peptide fold change” value was -0.16. “STK39_Q9UEW8_450_EASSCAVNLVLR (UniProt Q9UEW8)” was tested, and the “probe-labelled cysteine peptide fold change” value was 0.0335. For “STRAP_Q9Y3F4_305_CVLPEEDSGELAKPK (UniProt Q9Y3F4)”, the “probe-labelled cysteine peptide fold change” value was -0.0387. For “STRN3_Q13033_757_TCVQEITAHR (UniProt Q13033)”, the “probe-labelled cysteine peptide fold change” value was 0.196. In the case of “STXBP3_O00186_48_LLASCCK (UniProt O00186)”, the “probe-labelled cysteine peptide fold change” value is reported as 0.0279. With “STX4_Q12846_141_CNSMQSEYR (UniProt Q12846)” the “probe-labelled cysteine peptide fold change” value was -0.164. In the case of “SUPT6H_Q7KZ85_796_DHPVFCALVNGEGEVTDFLR (UniProt Q7KZ85)”, the “probe-labelled cysteine peptide fold change” value is reported as 0.36. “SRPRA_P08240_424_QRPYVVTFCGVNGVGK (UniProt P08240)” was tested, and the “probe-labelled cysteine peptide fold change” value was 0.0456. With “STAT6_P42226_228_CESLVDIYSQLQQEVGAAGGELEPK (UniProt P42226)” the “probe-labelled cysteine peptide fold change” value was 0.0161. For “SUPV3L1_Q8IYB8_372_RLTPISVLDHALESLDNLRPGDCIVCFSK (UniProt Q8IYB8)”, the “probe-labelled cysteine peptide fold change” value was -0.19. For “STK10_O94804_947_LSEEAECPNPSTPSK (UniProt O94804)”, the “probe-labelled cysteine peptide fold change” value was -0.0762. For “STK17B_O94768_372_FRFDDSLPNPHELVSDLLC (UniProt O94768)”, the “probe-labelled cysteine peptide fold change” value was -0.162. With “SUPT4H1_P63272_16+19_ACLLCSLVK (UniProt P63272)” the “probe-labelled cysteine peptide fold change” value was 0.0764. For “STAMBP_O95630_286_GVETCGILCGK (UniProt O95630)”, the “probe-labelled cysteine peptide fold change” value was 0.115.

Same assay, conditions: 50 µM; THP-1; incubation time: 4 h
With “SURF4_O15260_32_LCLISTFLEDGIR (UniProt O15260)” the “probe-labelled cysteine peptide fold change” value was 0.348. In the case of “SRPRA_P08240_253_VWELGGCANK (UniProt P08240)”, the “probe-labelled cysteine peptide fold change” value is reported as -0.197. With “SUPT6H_Q7KZ85_990_AIAHPYSQALIQYVCGLGPR (UniProt Q7KZ85)” the “probe-labelled cysteine peptide fold change” value was 0.548. With “STT3A_P46977_637_VDREGSPVLLNCLMYK (UniProt P46977)” the “probe-labelled cysteine peptide fold change” value was 0.167. “SUPT6H_Q7KZ85_1281_FSADLTCR (UniProt Q7KZ85)” was tested, and the “probe-labelled cysteine peptide fold change” value was 0.112. In the case of “STAT1_P42224_155_VMCIEHEIK (UniProt P42224)”, the “probe-labelled cysteine peptide fold change” value is reported as -0.0274. “SUZ12_Q15022_531_RTPITHILVCR (UniProt Q15022)” was tested, and the “probe-labelled cysteine peptide fold change” value was -0.0184. “SUPT6H_Q7KZ85_939_IQDPLIEFAQVCSSDEDILCLK (UniProt Q7KZ85)” was tested, and the “probe-labelled cysteine peptide fold change” value was 0.483. In the case of “SRRM2_Q9UQ35_785_SLSGSSPCPK (UniProt Q9UQ35)”, the “probe-labelled cysteine peptide fold change” value is reported as -0.0247. In the case of “STK24_Q9Y6E0_375_RPFSQCLSTIISPLFAELK (UniProt Q9Y6E0)”, the “probe-labelled cysteine peptide fold change” value is reported as -0.314. In the case of “SURF2_Q15527_93_CPEHVLR (UniProt Q15527)”, the “probe-labelled cysteine peptide fold change” value is reported as 0.114. “SUPT5H_O00267_638_LVENGGMFVCK (UniProt O00267)” was tested, and the “probe-labelled cysteine peptide fold change” value was 0.263. With “SUPT6H_Q7KZ85_1465_EKPTFIPYFICACK (UniProt Q7KZ85)” the “probe-labelled cysteine peptide fold change” value was -0.0985. “STRADA_Q7RTN6_107_INLEACSNEMVTFLQGELHVSK (UniProt Q7RTN6)” was tested, and the “probe-labelled cysteine peptide fold change” value was 0.075. In the case of “STXBP6_Q8NFX7_144_KPEFINCQSK (UniProt Q8NFX7)”, the “probe-labelled cysteine peptide fold change” value is reported as -0.0812. For “STUB1_Q9UNE7_232_DIPDYLCGK (UniProt Q9UNE7)”, the “probe-labelled cysteine peptide fold change” value was -0.0445. For “STAT3_P40763_687_YCRPESQEHPEADPGSAAPYLK (UniProt P40763)”, the “probe-labelled cysteine peptide fold change” value was -0.195. For “STAT2_P52630_323_AFVVETQPCMPQTPHRPLILK (UniProt P52630)”, the “probe-labelled cysteine peptide fold change” value was 0.0157. In the case of “SWAP70_Q9UH65_261_GDILLDENCCVESLPDK (UniProt Q9UH65)”, the “probe-labelled cysteine peptide fold change” value is reported as 0.29. For “SURF2_Q15527_29_CILTGHELPCR (UniProt Q15527)”, the “probe-labelled cysteine peptide fold change” value was 0.163. “SWAP70_Q9UH65_260_GDILLDENCCVESLPDK (UniProt Q9UH65)” was tested, and the “probe-labelled cysteine peptide fold change” value was 0.0667. For “SRRM2_Q9UQ35_1480_SECDSSPEPK (UniProt Q9UQ35)”, the “probe-labelled cysteine peptide fold change” value was -0.0785. With “STAG2_Q8N3U4_176_SSFCEFIGVLVR (UniProt Q8N3U4)” the “probe-labelled cysteine peptide fold change” value was 0.139. For “STX17_P56962_290_LTSSCPDLPSQTDKK (UniProt P56962)”, the “probe-labelled cysteine peptide fold change” value was -0.225. For “STK39_Q9UEW8_450_EASSCAVNLVLR (UniProt Q9UEW8)”, the “probe-labelled cysteine peptide fold change” value was -0.0196. With “STRAP_Q9Y3F4_305_CVLPEEDSGELAKPK (UniProt Q9Y3F4)” the “probe-labelled cysteine peptide fold change” value was 0.0212. “STRN3_Q13033_757_TCVQEITAHR (UniProt Q13033)” was tested, and the “probe-labelled cysteine peptide fold change” value was 0.0473. With “STXBP3_O00186_48_LLASCCK (UniProt O00186)” the “probe-labelled cysteine peptide fold change” value was 0.0833. “STX4_Q12846_141_CNSMQSEYR (UniProt Q12846)” was tested, and the “probe-labelled cysteine peptide fold change” value was -0.155. For “SUPT6H_Q7KZ85_796_DHPVFCALVNGEGEVTDFLR (UniProt Q7KZ85)”, the “probe-labelled cysteine peptide fold change” value was 0.207. “SRPRA_P08240_424_QRPYVVTFCGVNGVGK (UniProt P08240)” was tested, and the “probe-labelled cysteine peptide fold change” value was 0.202. For “STAT6_P42226_228_CESLVDIYSQLQQEVGAAGGELEPK (UniProt P42226)”, the “probe-labelled cysteine peptide fold change” value was -0.12. With “SUPV3L1_Q8IYB8_372_RLTPISVLDHALESLDNLRPGDCIVCFSK (UniProt Q8IYB8)” the “probe-labelled cysteine peptide fold change” value was -0.0601. “STK10_O94804_947_LSEEAECPNPSTPSK (UniProt O94804)” was tested, and the “probe-labelled cysteine peptide fold change” value was -0.392. In the case of “STK17B_O94768_372_FRFDDSLPNPHELVSDLLC (UniProt O94768)”, the “probe-labelled cysteine peptide fold change” value is reported as -0.0804. In the case of “SUPT4H1_P63272_16+19_ACLLCSLVK (UniProt P63272)”, the “probe-labelled cysteine peptide fold change” value is reported as 0.0238. “STAMBP_O95630_286_GVETCGILCGK (UniProt O95630)” was tested, and the “probe-labelled cysteine peptide fold change” value was 0.13.
